# Data as given in PubChem BioAssay AID540276 (National Center for Advancing Translational Sciences (NCATS), 2011).
# About 5,400 (1.8%) of roughly 300,000 compounds were called active. The inconclusive results got no clear call from the source; some entries with a clear call stand among them for comparison. The call rests on the fitted dose curve; tested in HEK293 cells. Potencies beside an inconclusive call are fits to weak or partial responses and may not hold up.
# Experiment: qHTS for inhibitors of binding or entry into cells for Marburg Virus
# Details: Marburg virus pseudotyped entry inhibition, cell reporter; activity change, negative = inhibition: at 37.8 µM (top of the series) unless noted
# On the % scale 0 is the no-effect control and ±100 the full control effect; potency means the concentration at half of the fitted maximal effect.
Structure (SMILES),"activity change, negative = inhibition",Potency
Cc1ccc(CNc2nc3ccccc3n2C)o1,inactive: -8.7%,–
N/C(=N\OC(=O)CCCc1ccccc1)c1cccnc1,–,"inconclusive: 20.6 µM [activator, single point]"
CCOc1ccc2nc(NC(=O)c3ccc(S(=O)(=O)N4CCOCC4)cc3)sc2c1,inactive: 9.06%,–
CC(C)c1ccc(CNC(=O)C(=O)NCC2CCCO2)cc1 (stereo not drawn),–,"inconclusive: 11.2 µM [inhibitor, partial curve, poor fit]"
O=S(=O)(c1ccccc1)c1nc(-c2ccco2)oc1NCc1ccco1,–,"inconclusive: 11.2 µM [inhibitor, single point]"
O=C(c1cc2nc(-c3ccccc3)cc(-c3ccccc3)n2n1)N1CCC2(CC1)OCCO2,–,"inconclusive: 35.5 µM [inhibitor, partial curve, poor fit]"
O=C(NN1C(=O)C2C3CCC(O3)C2C1=O)c1ccco1 (stereo not drawn),–,"inconclusive: 15.8 µM [activator, single point]"
COc1ccc(OC)c(N/C(C)=C/C(=O)c2ccccc2)c1,–,"inconclusive: 11.2 µM [activator, partial curve, poor fit]"
COC(=O)c1c(NC(=O)Cc2ccc(OC)c(S(=O)(=O)N3CCOCC3)c2)sc(C)c1C,–,"inconclusive: 7.94 µM [inhibitor, partial curve, poor fit]"
O=[N+]([O-])c1ccc(Nc2c3ccccc3nc3ccccc23)cc1,–,"inconclusive: 22.4 µM [inhibitor, single point]"
CN(CC(O)CON=C1c2ccccc2-c2ccccc21)S(=O)(=O)c1ccc(Br)cc1 (stereo not drawn),–,"inconclusive: 14.1 µM [inhibitor, single point]"
Nc1ccc2nc(C3CCCCC3)[nH]c2c1,inactive: 2.93% [at 46.1 µM],–
Cc1ccc(Cn2c(SCC(=O)N3CC(=O)Nc4ccccc43)nc3ccccc3c2=O)cc1,–,"inconclusive: 12.6 µM [inhibitor, single point]"
O=C(Nc1nnc(C(F)(F)F)s1)C1COc2ccccc2O1 (stereo not drawn),–,"inconclusive: 6.31 µM [inhibitor, full curve, poor fit]"
CCOc1ccccc1N1CC(c2nc3ccccc3n2CCOc2ccc(C(C)(C)C)cc2)CC1=O (stereo not drawn),–,"inconclusive: 11.2 µM [inhibitor, partial curve, poor fit]"
CC(=O)c1cccc(NC(=O)CNC(=O)c2sc3ccccc3c2Cl)c1,–,"inconclusive: 3.98 µM [inhibitor, full curve, poor fit]"
COc1cc(NC(=O)CNc2cccc(S(=O)(=O)N3CCOCC3)c2)cc(OC)c1,–,"inconclusive: 12.6 µM [inhibitor, single point]"
CCOc1ccc(C(=O)NCCc2ccc3c(c2)OCCO3)cc1,inactive: 8.34% [at 46.1 µM],–
CCOP(=O)(OCC)C(NC(=O)c1cccc2ccccc12)C(Cl)(Cl)Cl (stereo not drawn),–,"inconclusive: 10 µM [inhibitor, partial curve, poor fit]"
CON(C)c1nc(OCCNC(=O)COc2ccc(Cl)cc2C)nc(N(C)C)n1,–,"inconclusive: 5.01 µM [inhibitor, full curve]"
CC(C)c1ccc(OCC(O)Cn2cnc3ccccc32)cc1 (stereo not drawn),–,"inconclusive: 6.31 µM [inhibitor, partial curve, poor fit]"
N#CC1=C2SCN(Cc3ccco3)CN2C(=O)CC1c1ccccc1F (stereo not drawn),inactive: -7.99%,–
COc1ccc(CCNC(=O)CN2CCCc3ccccc32)cc1OC,–,"inconclusive: 32.6 µM [inhibitor, partial curve, poor fit]"

Structure (SMILES),"activity change, negative = inhibition",Potency
CCC(=O)N1CCc2cc(S(=O)(=O)N(C)c3cccc(C)c3)ccc21,inactive: 3.08% [at 46.1 µM],–
COC(=O)CSc1nnc2n(-c3ccccc3)c(=O)c3c4c(sc3n12)COC(C(C)C)C4 (stereo not drawn),inactive: 2.64% [at 46.1 µM],–
CCS(=O)(=O)c1ccc2oc(Nc3cccc(OC)c3)nc2c1,–,"inconclusive: 3.55 µM [activator, single point]"
CCN1CCN(c2ccc(N)cc2C)CC1,–,"inconclusive: 12.6 µM [inhibitor, partial curve, poor fit]"
Cc1ccnc(NC(=O)c2ccc(NC(=O)CC3SC(N4CCCC4)=NC3=O)cc2)c1 (stereo not drawn),–,"inconclusive: 3.16 µM [inhibitor, partial curve, poor fit]"
C=CCc1ccc(OC(=O)NC2CCCCC2)c(OC)c1,–,"inconclusive: 1.26 µM [inhibitor, partial curve, poor fit]"
CC1CCN(S(=O)(=O)c2cccc(C(=O)Nc3ccccc3)c2)CC1,inactive: -27.2% [at 46.1 µM],–
Cc1oc(=O)c(NC(=O)c2cccc(Cl)c2)cc1C(=O)c1ccccc1,–,"inconclusive: 14.6 µM [inhibitor, single point]"
NC(=O)c1cc[n+](Cc2ccccc2Cl)cc1,inactive: 9.96% [at 46.1 µM],–
CCOC(=O)Cn1nc(-c2ccc(F)cc2)oc1=O,–,"inconclusive: 14.1 µM [activator, single point]"
O=C1c2ccccc2C(=O)N1CCCC[C@]12Cc3ccccc3[C@H](O1)c1c(c3ccccc3oc1=O)O2,inactive: -29.2% [at 14.2 µM],–
O=[N+]([O-])c1ccccc1/C=N/N1CCN(c2ccncc2S(=O)(=O)N2CCCCC2)CC1,–,"inconclusive: 12.6 µM [inhibitor, single point]"
COc1cccc(CN2C(=O)c3ccccc3Sc3ccc(C(=O)NCCc4ccc(C)cc4)cc32)c1,–,"inconclusive: 35.5 µM [inhibitor, single point]"
COc1cccc(CN2CC(C(=O)N3CCN(c4ccc(Cl)cc4)CC3)CCC2=O)c1 (stereo not drawn),–,"inconclusive: 0.316 µM [inhibitor, partial curve, poor fit]"
S=c1[nH]nc(-c2ccc(Cl)cc2Cl)n1-c1ccc2c(c1)OCCO2,inactive: 10.8%,–
CN(C)c1ccc(P(=O)(OC2CCCCC2)C(Nc2ccccc2)c2cccnc2)cc1 (stereo not drawn),–,"inconclusive: 35.5 µM [inhibitor, single point]"
O=C(Nc1nnc(CSCc2ccc(F)cc2)s1)c1cccc([N+](=O)[O-])c1,inactive: -17.3%,–
COc1ccc(C(=O)N2CCN(CCNC(=O)C(=O)Nc3ccc(F)cc3)CC2)cc1OC,inactive: 18% [at 46.1 µM],–
COc1ccc(-c2nc(N)nc(C(F)(F)F)c2-c2csc(C)n2)c(O)c1,–,"inconclusive: 10 µM [activator, partial curve, poor fit]"
Cc1cc(N2CCOCC2)nc(NCc2ccccc2)n1,–,"inconclusive: 16.4 µM [inhibitor, partial curve]"
COc1ccc(C(CNC(=O)C(C)(C)Oc2ccc(Cl)cc2)N2CCCCC2)cc1 (stereo not drawn),–,"inconclusive: 35.5 µM [inhibitor, single point]"
COc1ccc(CNC(=O)C(C)N=C2NS(=O)(=O)c3ccccc32)cc1OC (stereo not drawn),inactive: -8.88%,–
CC[n+]1c(/C=C/N(C)c2ccccc2)oc2ccccc21,–,"inconclusive: 6.31 µM [inhibitor, full curve, poor fit]"

# One compound at a time, from the list above. Order of values: activity change, negative = inhibition	Potency
# `COc1ccc(CNC(=O)C(C)N=C2NS(=O)(=O)c3ccccc32)cc1OC` (stereo not drawn) is listed with inactive: -8.88%	–
# `S=c1[nH]nc(-c2ccc(Cl)cc2Cl)n1-c1ccc2c(c1)OCCO2` is listed with inactive: 10.8%	–

# Reformatted as tab-separated lines: part of the list above
Structure (SMILES)	activity change, negative = inhibition	Potency
O=C1c2ccccc2C(=O)N1CCCC[C@]12Cc3ccccc3[C@H](O1)c1c(c3ccccc3oc1=O)O2	inactive: -29.2% [at 14.2 µM]	–
O=[N+]([O-])c1ccccc1/C=N/N1CCN(c2ccncc2S(=O)(=O)N2CCCCC2)CC1	–	inconclusive: 12.6 µM [inhibitor, single point]
COc1cccc(CN2C(=O)c3ccccc3Sc3ccc(C(=O)NCCc4ccc(C)cc4)cc32)c1	–	inconclusive: 35.5 µM [inhibitor, single point]
COc1cccc(CN2CC(C(=O)N3CCN(c4ccc(Cl)cc4)CC3)CCC2=O)c1 (stereo not drawn)	–	inconclusive: 0.316 µM [inhibitor, partial curve, poor fit]

# Carrying on.

Structure (SMILES),"activity change, negative = inhibition",Potency
O=C(c1ccc(Cl)cc1)N1CCN(c2ccc([N+](=O)[O-])c(NCc3cccnc3)c2)CC1,–,"inconclusive: 12.6 µM [inhibitor, single point]"
Cc1cc(C)n(Cc2ccc(NC(=O)c3ccc(COc4ccccc4Br)cc3)cc2)n1,–,"inconclusive: 29.1 µM [inhibitor, single point]"
CCOP(=O)(OCC)C(NC(=O)CN1C(=O)c2ccccc2S1(=O)=O)C(Cl)(Cl)Cl (stereo not drawn),–,"inconclusive: 35.5 µM [inhibitor, single point]"
COc1ccc(NC(=O)c2sc(Cl)nc2-c2ccccc2)cc1,–,"inconclusive: 11.2 µM [inhibitor, single point]"
CCCC1=Nc2cc(C(=O)NCCc3ccc(OCC)cc3)ccc2Sc2ccccc21,inactive: -4.55% [at 46.1 µM],–
Clc1nc2ccccc2nc1-c1ccccc1,–,"inconclusive: 20.6 µM [inhibitor, partial curve, poor fit]"
CN(C)CCN=Cc1c(O)n(-c2cccc3ccccc23)c(=O)[nH]c1=O,–,"inconclusive: 31.6 µM [activator, single point]"
O=C(NCc1ccccc1)c1cnsn1,inactive: -2.04%,–
CCOC(=O)c1nc2nc(-c3cccs3)cc(C(F)(F)F)n2n1,inactive: -8.05%,–
Cc1nc(Nc2ccc(S(N)(=O)=O)cc2)sc1-c1ccccc1,–,"inconclusive: 20 µM [inhibitor, single point]"
CCC1CCCCN1CCCNC(=O)c1c(O)nc2ccccn2c1=O (stereo not drawn),–,inactive
O=C1c2ccccc2C(=O)N1CCc1ccccc1,–,"inconclusive: 2.51 µM [activator, single point]"
COc1cccc(/C=N/NC(=O)C(C)n2nnc3ccccc32)c1 (stereo not drawn),inactive: -4.35%,–
O=C(O)c1ccc(S(=O)(=O)Nc2ccc(F)c(Cl)c2)cc1,–,"inconclusive: 0.631 µM [inhibitor, full curve, poor fit]"
COc1ccc(-c2csc(-c3nc(-c4ccc(Br)s4)cs3)n2)cc1F,inactive: 23.4% [at 46.1 µM],–
O=C(NCc1ccccc1)C1CCCN(c2ncnc3c2nc2n3CCCCC2)C1 (stereo not drawn),–,"inconclusive: 4.47 µM [inhibitor, full curve]"
CCOc1ccccc1N1CCN(CC(O)COCc2cccs2)CC1 (stereo not drawn),–,"inconclusive: 15.8 µM [inhibitor, single point]"
CCOc1ccc(N(C(=O)c2cnsn2)C(C(=O)NC2CCCCC2)c2ccncc2)cc1 (stereo not drawn),–,"inconclusive: 6.31 µM [inhibitor, single point]"
COc1ccc(-c2nn(-c3ccccc3)cc2C(=O)NCC2CCCO2)cc1 (stereo not drawn),–,"inconclusive: 12.6 µM [inhibitor, partial curve, poor fit]"
Cc1ccc2nc(-c3ccccc3N)[nH]c2c1,–,"inconclusive: 6.31 µM [inhibitor, partial curve, poor fit]"
CCc1ccc(C(=O)Nn2cnc3ccccc3c2=O)cc1,inactive: 5.12% [at 46.1 µM],–
CC(C)(C)C1c2[nH]c3ccccc3c2CCN1Cc1cccc(OCCO)c1 (stereo not drawn),–,"inconclusive: 11.2 µM [inhibitor, partial curve, poor fit]"
